Data as given in the supplement of paper PMC12823440, “Inhibitors supercharge kinase turnover through native proteolytic circuits” (Nature, 2025).
Where a name gives a salt, the structure may show the parent alone. This is one part of the list. Hit calls seldom repeat between salt and free forms of one compound.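 In K562 cells expressing nanoluciferase-fused kinases, luminescence was recorded at 4 h intervals between 2 and 18 h, normalized as percent of control with DMSO at 100% and a positive control at 0%. A significant (2 sigma) signal drop marks a time point as decreased. The authors' rule for a hit is not shown and takes in more than the number of time points.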

The chains behind the UniProt entries cited, without tags or fusion partners.
UniProt P42356, whole entry, looked up: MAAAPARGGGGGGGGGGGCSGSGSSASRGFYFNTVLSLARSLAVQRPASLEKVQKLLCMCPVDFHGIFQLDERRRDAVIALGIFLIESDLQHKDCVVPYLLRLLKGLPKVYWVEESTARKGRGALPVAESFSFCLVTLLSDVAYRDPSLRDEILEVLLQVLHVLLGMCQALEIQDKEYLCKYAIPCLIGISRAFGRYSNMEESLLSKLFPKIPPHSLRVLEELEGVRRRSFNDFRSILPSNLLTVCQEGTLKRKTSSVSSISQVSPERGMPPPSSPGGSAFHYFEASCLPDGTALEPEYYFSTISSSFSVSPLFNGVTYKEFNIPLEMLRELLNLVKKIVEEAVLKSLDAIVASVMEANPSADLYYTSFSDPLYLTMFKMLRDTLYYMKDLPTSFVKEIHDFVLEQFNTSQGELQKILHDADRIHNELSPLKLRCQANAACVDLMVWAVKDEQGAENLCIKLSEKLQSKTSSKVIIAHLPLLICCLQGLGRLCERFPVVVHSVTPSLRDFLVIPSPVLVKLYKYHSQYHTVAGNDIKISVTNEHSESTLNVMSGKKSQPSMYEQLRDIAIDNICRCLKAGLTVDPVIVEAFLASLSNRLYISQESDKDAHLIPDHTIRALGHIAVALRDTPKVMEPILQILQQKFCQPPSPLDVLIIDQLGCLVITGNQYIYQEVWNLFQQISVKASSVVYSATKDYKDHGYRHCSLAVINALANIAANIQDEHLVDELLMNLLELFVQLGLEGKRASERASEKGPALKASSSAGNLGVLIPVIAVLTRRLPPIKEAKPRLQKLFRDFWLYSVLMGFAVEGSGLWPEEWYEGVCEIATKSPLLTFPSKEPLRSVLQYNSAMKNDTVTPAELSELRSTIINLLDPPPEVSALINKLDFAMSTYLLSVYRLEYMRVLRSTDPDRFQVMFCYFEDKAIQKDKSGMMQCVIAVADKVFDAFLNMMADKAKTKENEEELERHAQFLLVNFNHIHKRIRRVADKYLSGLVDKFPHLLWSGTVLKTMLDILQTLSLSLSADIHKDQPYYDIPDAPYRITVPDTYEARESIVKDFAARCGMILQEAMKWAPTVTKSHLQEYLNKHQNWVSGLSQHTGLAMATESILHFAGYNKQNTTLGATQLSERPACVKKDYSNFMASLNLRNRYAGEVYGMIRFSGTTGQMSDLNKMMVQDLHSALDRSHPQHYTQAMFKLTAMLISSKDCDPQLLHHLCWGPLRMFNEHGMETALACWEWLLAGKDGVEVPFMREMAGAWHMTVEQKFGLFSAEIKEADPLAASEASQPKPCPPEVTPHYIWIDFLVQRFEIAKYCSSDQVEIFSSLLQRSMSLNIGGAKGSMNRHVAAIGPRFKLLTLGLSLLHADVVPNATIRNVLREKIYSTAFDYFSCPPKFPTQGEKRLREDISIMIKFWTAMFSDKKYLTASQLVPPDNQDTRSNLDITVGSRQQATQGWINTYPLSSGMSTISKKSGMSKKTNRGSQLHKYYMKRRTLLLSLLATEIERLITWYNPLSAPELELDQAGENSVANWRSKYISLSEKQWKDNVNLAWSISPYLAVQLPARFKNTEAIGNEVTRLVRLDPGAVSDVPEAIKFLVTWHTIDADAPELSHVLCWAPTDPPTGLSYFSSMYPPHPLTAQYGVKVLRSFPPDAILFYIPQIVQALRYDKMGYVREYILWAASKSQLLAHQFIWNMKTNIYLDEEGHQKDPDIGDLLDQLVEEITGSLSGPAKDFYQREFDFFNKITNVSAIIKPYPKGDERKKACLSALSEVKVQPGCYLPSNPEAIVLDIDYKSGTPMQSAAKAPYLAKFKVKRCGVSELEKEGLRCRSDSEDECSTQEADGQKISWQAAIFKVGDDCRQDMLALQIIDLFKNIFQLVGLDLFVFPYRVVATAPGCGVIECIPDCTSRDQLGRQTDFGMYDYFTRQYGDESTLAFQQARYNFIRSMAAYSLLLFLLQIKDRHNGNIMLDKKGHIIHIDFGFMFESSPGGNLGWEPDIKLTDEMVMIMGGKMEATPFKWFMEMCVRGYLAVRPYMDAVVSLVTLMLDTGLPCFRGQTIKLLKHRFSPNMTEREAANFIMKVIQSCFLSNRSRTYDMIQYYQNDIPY
UniProt P53350, whole entry: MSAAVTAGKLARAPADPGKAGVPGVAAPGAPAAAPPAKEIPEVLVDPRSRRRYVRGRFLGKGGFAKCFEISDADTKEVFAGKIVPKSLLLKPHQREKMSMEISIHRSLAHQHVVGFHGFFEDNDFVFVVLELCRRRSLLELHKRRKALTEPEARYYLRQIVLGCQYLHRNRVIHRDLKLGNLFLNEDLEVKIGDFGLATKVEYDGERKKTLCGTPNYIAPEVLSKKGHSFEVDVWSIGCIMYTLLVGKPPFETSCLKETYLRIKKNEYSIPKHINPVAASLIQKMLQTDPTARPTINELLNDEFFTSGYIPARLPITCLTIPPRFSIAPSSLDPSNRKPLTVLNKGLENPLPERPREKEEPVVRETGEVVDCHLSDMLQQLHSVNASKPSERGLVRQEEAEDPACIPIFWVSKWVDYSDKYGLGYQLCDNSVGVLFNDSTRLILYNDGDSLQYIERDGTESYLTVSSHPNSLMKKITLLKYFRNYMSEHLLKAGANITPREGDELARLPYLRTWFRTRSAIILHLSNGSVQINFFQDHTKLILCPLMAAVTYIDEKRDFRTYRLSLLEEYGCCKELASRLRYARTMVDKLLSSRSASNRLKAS
UniProt Q05397, whole entry, looked up: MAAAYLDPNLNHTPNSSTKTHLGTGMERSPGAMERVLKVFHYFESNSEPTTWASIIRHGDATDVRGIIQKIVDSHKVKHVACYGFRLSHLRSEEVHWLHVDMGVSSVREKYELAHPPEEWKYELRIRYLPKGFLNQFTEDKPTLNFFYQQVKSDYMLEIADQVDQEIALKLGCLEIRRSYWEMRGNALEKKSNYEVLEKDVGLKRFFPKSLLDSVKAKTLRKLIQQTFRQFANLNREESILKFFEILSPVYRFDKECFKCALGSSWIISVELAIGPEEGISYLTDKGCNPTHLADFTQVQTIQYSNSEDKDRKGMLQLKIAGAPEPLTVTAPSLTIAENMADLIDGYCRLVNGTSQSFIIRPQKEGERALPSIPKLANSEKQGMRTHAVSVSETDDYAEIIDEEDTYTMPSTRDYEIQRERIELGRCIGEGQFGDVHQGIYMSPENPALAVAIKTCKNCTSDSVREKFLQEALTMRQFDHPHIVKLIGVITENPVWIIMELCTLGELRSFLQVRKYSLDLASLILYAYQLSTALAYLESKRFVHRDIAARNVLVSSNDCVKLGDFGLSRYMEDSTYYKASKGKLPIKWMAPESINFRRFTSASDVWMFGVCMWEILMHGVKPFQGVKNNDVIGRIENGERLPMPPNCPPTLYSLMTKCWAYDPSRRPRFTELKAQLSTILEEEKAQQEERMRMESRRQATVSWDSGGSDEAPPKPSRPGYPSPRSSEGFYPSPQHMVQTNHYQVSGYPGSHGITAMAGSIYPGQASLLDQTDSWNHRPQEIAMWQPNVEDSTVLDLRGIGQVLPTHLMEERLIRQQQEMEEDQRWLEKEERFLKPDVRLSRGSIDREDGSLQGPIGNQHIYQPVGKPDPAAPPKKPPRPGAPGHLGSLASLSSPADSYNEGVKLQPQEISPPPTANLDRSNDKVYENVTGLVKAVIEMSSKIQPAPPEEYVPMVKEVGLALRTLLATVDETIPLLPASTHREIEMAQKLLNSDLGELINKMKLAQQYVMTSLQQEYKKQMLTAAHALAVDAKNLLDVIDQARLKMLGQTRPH
UniProt P07949, whole entry, looked up: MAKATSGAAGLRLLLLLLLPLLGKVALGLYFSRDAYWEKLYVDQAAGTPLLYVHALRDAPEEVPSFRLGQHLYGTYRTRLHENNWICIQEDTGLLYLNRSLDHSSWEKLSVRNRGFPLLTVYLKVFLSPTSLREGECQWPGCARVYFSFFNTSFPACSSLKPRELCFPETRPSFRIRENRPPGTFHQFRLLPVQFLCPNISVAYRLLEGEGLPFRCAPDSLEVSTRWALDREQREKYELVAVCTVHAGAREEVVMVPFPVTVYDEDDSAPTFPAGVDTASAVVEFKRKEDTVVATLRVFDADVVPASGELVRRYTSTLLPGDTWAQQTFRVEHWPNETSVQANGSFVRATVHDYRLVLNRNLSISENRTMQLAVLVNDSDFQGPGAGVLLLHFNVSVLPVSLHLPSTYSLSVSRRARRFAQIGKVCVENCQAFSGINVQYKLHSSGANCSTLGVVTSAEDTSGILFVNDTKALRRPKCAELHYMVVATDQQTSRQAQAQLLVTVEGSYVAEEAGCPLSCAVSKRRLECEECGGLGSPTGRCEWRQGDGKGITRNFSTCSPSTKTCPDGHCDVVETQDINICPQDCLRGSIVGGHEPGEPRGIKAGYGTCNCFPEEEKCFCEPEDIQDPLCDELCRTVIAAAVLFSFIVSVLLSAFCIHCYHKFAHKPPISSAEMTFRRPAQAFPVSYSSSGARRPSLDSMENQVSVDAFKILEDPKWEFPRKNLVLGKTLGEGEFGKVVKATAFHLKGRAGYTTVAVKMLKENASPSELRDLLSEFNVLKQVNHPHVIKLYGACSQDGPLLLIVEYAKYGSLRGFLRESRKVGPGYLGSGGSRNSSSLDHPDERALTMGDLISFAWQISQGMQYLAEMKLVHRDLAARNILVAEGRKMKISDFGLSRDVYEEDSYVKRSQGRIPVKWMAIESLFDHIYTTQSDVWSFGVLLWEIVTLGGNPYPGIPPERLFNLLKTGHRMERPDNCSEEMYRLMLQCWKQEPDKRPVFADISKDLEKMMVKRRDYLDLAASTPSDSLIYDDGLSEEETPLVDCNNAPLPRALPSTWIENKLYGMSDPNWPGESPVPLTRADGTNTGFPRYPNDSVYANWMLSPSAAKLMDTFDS
UniProt P07949, whole entry M918T, looked up: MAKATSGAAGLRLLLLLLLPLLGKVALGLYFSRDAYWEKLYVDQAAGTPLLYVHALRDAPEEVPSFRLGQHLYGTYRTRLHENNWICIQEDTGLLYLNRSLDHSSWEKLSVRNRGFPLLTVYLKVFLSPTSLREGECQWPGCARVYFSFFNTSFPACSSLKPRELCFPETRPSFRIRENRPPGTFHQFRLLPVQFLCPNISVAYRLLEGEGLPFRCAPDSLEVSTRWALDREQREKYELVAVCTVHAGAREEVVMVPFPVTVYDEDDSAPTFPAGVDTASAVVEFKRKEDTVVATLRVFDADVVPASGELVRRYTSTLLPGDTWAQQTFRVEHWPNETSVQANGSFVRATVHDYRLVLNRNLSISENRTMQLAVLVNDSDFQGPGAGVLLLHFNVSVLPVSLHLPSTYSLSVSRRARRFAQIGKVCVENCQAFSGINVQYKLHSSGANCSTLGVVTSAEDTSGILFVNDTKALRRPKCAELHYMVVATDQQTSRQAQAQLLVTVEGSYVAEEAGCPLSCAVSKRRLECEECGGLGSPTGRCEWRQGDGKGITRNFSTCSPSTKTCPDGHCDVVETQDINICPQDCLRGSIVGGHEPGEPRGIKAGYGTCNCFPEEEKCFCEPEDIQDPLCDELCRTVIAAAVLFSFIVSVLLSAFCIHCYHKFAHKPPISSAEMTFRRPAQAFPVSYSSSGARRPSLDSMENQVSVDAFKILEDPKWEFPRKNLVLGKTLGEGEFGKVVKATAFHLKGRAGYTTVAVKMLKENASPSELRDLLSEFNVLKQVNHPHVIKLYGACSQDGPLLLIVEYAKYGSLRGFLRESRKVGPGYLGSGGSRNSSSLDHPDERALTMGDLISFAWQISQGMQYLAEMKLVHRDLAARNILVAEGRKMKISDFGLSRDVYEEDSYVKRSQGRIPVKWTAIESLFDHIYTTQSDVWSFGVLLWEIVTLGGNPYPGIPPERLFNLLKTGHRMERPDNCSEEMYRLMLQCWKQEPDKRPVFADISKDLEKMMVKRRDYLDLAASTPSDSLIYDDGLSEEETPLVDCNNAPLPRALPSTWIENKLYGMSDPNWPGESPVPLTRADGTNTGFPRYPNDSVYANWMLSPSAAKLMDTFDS
UniProt Q9NYA1, whole entry: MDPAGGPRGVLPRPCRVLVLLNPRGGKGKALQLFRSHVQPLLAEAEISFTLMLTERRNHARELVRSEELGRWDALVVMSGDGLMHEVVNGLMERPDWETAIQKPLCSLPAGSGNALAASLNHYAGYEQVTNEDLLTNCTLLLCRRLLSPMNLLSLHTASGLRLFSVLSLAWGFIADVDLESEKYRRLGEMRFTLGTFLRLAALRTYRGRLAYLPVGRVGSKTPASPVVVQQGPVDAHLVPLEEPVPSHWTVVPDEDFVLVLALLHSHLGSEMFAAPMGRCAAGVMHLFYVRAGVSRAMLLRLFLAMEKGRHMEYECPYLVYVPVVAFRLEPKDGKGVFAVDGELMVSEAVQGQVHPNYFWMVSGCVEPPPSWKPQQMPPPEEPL

Legend:
Assay in all cases: kinase-Nluc reporter destabilization hit call (1 = scored as downregulated) (binary); higher = compound decreases kinase abundance
Conditions in all cases: K562; 2-18 h
[1] = molecular target: PDPK1 (UniProt O15530)
[2] = molecular target: PIK4CA (UniProt P42356)
[3] = molecular target: PIK4CB (UniProt Q9UBF8)
[4] = molecular target: PLK1 (UniProt P53350)
[5] = molecular target: PRKAA1 (UniProt Q13131)
[6] = molecular target: PRKCA (UniProt P17252)
[7] = molecular target: PTK2 (UniProt Q05397)
[8] = molecular target: PTK2B (UniProt Q14289)
[9] = molecular target: RAF1 (UniProt P04049)
[10] = molecular target: RAF1_S257L (clone: RAF1_mut) (UniProt P04049)
[11] = molecular target: RET (UniProt P07949)
[12] = molecular target: RET_M918T (clone: RET_mut) (UniProt P07949)
[13] = molecular target: RIOK1 (UniProt Q9BRS2)
[14] = molecular target: RIPK1 (UniProt Q13546)
[15] = molecular target: RIPK2 (UniProt O43353)
[16] = molecular target: ROR2 (UniProt Q01974)
[17] = molecular target: RPS6KA1 (UniProt Q15418)
[18] = molecular target: SPHK1 (UniProt Q9NYA1)
[19] = molecular target: SRC (UniProt P12931)
[20] = molecular target: STK24 (UniProt Q9Y6E0)

Measured: kinase-Nluc reporter destabilization hit call

CNC(=O)c1c(C)oc2cc(Oc3ncnc4cc(OC)c(OC)cc34)ccc12 [Fruquintinib] (10 µM)
inactive: [1] 0 | [2] 0 | [3] 0 | [4] 0 | [5] 0 | [6] 0 | [7] 0 | [8] 0 | [9] 0 | [10] 0 | [11] 0 | [12] 0 | [13] 0 | [14] 0 | [15] 0 | [16] 0 | [17] 0 | [18] 0 | [19] 0 | [20] 0

CC(=O)Nc1nc(C)c(-c2cc3c(c(S(C)(=O)=O)c2)C(=O)N([C@@H](C)C2CC2)C3)s1 (2.5 µM)
inactive: [1] 0 | [2] 0 | [3] 0 | [4] 0 | [5] 0 | [6] 0 | [7] 0 | [8] 0 | [9] 0 | [10] 0 | [11] 0 | [12] 0 | [13] 0 | [14] 0 | [15] 0 | [16] 0 | [17] 0 | [18] 0 | [19] 0 | [20] 0

OCCC#Cc1nc(-c2ccc(F)cc2)c(-c2ccncc2)n1CCCc1ccccc1 (2.5 µM)
inactive: [1] 0 | [2] 0 | [3] 0 | [4] 0 | [5] 0 | [6] 0 | [7] 0 | [8] 0 | [9] 0 | [10] 0 | [11] 0 | [12] 0 | [13] 0 | [14] 0 | [15] 0 | [16] 0 | [17] 0 | [18] 0 | [19] 0 | [20] 0

Cn1cc(C2=C(c3c4n(c5ccccc35)CCC(CN)C4)C(=O)NC2=O)c2ccccc21 (stereo not given) [Bisindolylmaleimide X (hydrochloride)] (2.5 µM)
inactive: [1] 0 | [2] 0 | [3] 0 | [4] 0 | [5] 0 | [6] 0 | [7] 0 | [8] 0 | [9] 0 | [10] 0 | [11] 0 | [12] 0 | [13] 0 | [14] 0 | [15] 0 | [16] 0 | [17] 0 | [18] 0 | [19] 0 | [20] 0

CCS(=O)(=O)c1ccc(Oc2cc(O[C@@H](C)CO)cc(C(=O)Nc3ccn(C)n3)c2)cn1 (10 µM)
inactive: [1] 0 | [2] 0 | [3] 0 | [4] 0 | [5] 0 | [6] 0 | [7] 0 | [8] 0 | [9] 0 | [10] 0 | [11] 0 | [12] 0 | [13] 0 | [14] 0 | [15] 0 | [16] 0 | [17] 0 | [18] 0 | [19] 0 | [20] 0

COc1cc(-c2cc(-c3cccc(O)c3)cnc2N)cc(OC)c1OC (2.5 µM)
inactive: [1] 0 | [2] 0 | [3] 0 | [4] 0 | [5] 0 | [6] 0 | [7] 0 | [8] 0 | [9] 0 | [10] 0 | [11] 0 | [12] 0 | [13] 0 | [14] 0 | [15] 0 | [16] 0 | [17] 0 | [18] 0 | [19] 0 | [20] 0

Cc1cc(/C=C2\CC/C(=C\c3cc(C)c(O)c(C)c3)C2=O)cc(C)c1O [Pentagamavunon-1] (2.5 µM)
inactive: [1] 0 | [2] 0 | [3] 0 | [4] 0 | [5] 0 | [6] 0 | [7] 0 | [8] 0 | [9] 0 | [10] 0 | [11] 0 | [12] 0 | [13] 0 | [14] 0 | [15] 0 | [16] 0 | [17] 0 | [18] 0 | [19] 0 | [20] 0

Cc1cc([N+](=O)[O-])c(NS(=O)(=O)c2cccc(C(=O)O)c2)cc1-c1cccnc1 [Alofanib] (10 µM)
inactive: [1] 0 | [2] 0 | [3] 0 | [4] 0 | [5] 0 | [6] 0 | [7] 0 | [8] 0 | [9] 0 | [10] 0 | [11] 0 | [12] 0 | [13] 0 | [14] 0 | [15] 0 | [16] 0 | [17] 0 | [18] 0 | [19] 0 | [20] 0

CNC[C@@H](NC(=O)c1ccc(-c2nc([C@H]3CC[C@H](O)[C@@H](F)C3)cnc2N)cc1F)c1cc(F)cc(Br)c1 [Rineterkib] (10 µM)
inactive: [1] 0 | [2] 0 | [3] 0 | [4] 0 | [5] 0 | [6] 0 | [7] 0 | [8] 0 | [9] 0 | [10] 0 | [11] 0 | [12] 0 | [13] 0 | [14] 0 | [15] 0 | [16] 0 | [17] 0 | [18] 0 | [19] 0 | [20] 0

Cc1ncc(F)c(Nc2n[nH]c3c2CN(C(=O)N2C[C@@H](C)N(CC4CCOCC4)C[C@@H]2C)C3(C)C)n1 (10 µM)
inactive: [1] 0 | [2] 0 | [3] 0 | [4] 0 | [5] 0 | [6] 0 | [7] 0 | [8] 0 | [9] 0 | [10] 0 | [11] 0 | [12] 0 | [13] 0 | [14] 0 | [15] 0 | [16] 0 | [17] 0 | [18] 0 | [19] 0 | [20] 0

CC(C)=CCC/C(C)=C/CC/C(C)=C/CSc1ccccc1C(=O)O [Salirasib] (10 µM)
inactive: [1] 0 | [2] 0 | [3] 0 | [4] 0 | [5] 0 | [6] 0 | [7] 0 | [8] 0 | [9] 0 | [10] 0 | [11] 0 | [12] 0 | [13] 0 | [14] 0 | [15] 0 | [16] 0 | [17] 0 | [18] 0 | [19] 0 | [20] 0

CC(C)c1cnn2c(NCc3ccccc3)cc(NCCCCCCN)nc12 [BS-181 (hydrochloride)] (10 µM)
inactive: [1] 0 | [2] 0 | [3] 0 | [4] 0 | [5] 0 | [6] 0 | [7] 0 | [8] 0 | [9] 0 | [10] 0 | [11] 0 | [12] 0 | [13] 0 | [14] 0 | [15] 0 | [16] 0 | [17] 0 | [18] 0 | [19] 0 | [20] 0

COc1cc(Nc2nc3ccccc3nc2NS(=O)(=O)c2ccc(NC(=O)c3ccc(C)c(OC)c3)cc2)cc(OC)c1 (10 µM)
inactive: [1] 0 | [2] 0 | [3] 0 | [4] 0 | [5] 0 | [6] 0 | [7] 0 | [8] 0 | [9] 0 | [10] 0 | [11] 0 | [12] 0 | [13] 0 | [14] 0 | [15] 0 | [16] 0 | [17] 0 | [18] 0 | [19] 0 | [20] 0

CC(C)(C)c1ccc(C(=O)Nc2cn3cc(-n4ccnc4)ccc3n2)cc1 (10 µM)
inactive: [1] 0 | [2] 0 | [3] 0 | [4] 0 | [5] 0 | [6] 0 | [7] 0 | [8] 0 | [9] 0 | [10] 0 | [11] 0 | [12] 0 | [13] 0 | [14] 0 | [15] 0 | [16] 0 | [17] 0 | [18] 0 | [19] 0 | [20] 0

C[C@H](Nc1ccc2c(c1)OCCn1cc(N3C(=O)OC[C@H]3C(F)F)nc1-2)C(N)=O (10 µM)
inactive: [1] 0 | [2] 0 | [3] 0 | [4] 0 | [5] 0 | [6] 0 | [7] 0 | [8] 0 | [9] 0 | [10] 0 | [11] 0 | [12] 0 | [13] 0 | [14] 0 | [15] 0 | [16] 0 | [17] 0 | [18] 0 | [19] 0 | [20] 0

Reprinted at random: two entries already listed.
COc1cc(Nc2nc3ccccc3nc2NS(=O)(=O)c2ccc(NC(=O)c3ccc(C)c(OC)c3)cc2)cc(OC)c1 (10 µM)
inactive: [1] 0 | [2] 0 | [3] 0 | [4] 0 | [5] 0 | [6] 0 | [7] 0 | [8] 0 | [9] 0 | [10] 0 | [11] 0 | [12] 0 | [13] 0 | [14] 0 | [15] 0 | [16] 0 | [17] 0 | [18] 0 | [19] 0 | [20] 0

CC(C)c1cnn2c(NCc3ccccc3)cc(NCCCCCCN)nc12 [BS-181 (hydrochloride)] (10 µM)
inactive: [1] 0 | [2] 0 | [3] 0 | [4] 0 | [5] 0 | [6] 0 | [7] 0 | [8] 0 | [9] 0 | [10] 0 | [11] 0 | [12] 0 | [13] 0 | [14] 0 | [15] 0 | [16] 0 | [17] 0 | [18] 0 | [19] 0 | [20] 0

(next part)

COc1c(OCCCN2CCOCC2)ccc2c3n(c(=NC(=O)c4cnc(N)nc4)nc12)CCN3 [Copanlisib (dihydrochloride)] (10 µM)
inactive: [1] 0 | [2] 0 | [3] 0 | [4] 0 | [5] 0 | [6] 0 | [7] 0 | [8] 0 | [9] 0 | [10] 0 | [11] 0 | [12] 0 | [13] 0 | [14] 0 | [15] 0 | [16] 0 | [17] 0 | [18] 0 | [19] 0 | [20] 0
